Substitutions are numbered along the chain they refer to. Results are given in words; binding and its absence hold for the method and conditions named. Some binding calls cover weakened binding; strength is not graded here. Each block holds one binder with its values, some of them ahead of it.
Target: ヒトTFPI(American Diagnostica) (human) (UniProt P10646)
Assay: ELISA screen of Fab lysates on coated human TFPI

Chains of the proteins cited; added tags and fusions are not shown. Residues count along the entry.
UniProt P10646, residues 29-304: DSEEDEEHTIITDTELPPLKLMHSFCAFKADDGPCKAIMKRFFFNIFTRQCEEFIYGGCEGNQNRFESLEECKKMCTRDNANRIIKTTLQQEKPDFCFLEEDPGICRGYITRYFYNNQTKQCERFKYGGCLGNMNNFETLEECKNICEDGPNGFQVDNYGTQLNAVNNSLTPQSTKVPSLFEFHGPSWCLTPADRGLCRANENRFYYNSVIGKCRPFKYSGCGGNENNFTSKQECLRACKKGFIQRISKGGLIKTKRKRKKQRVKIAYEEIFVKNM

B1: TP-2B4 (Fab, V domains shown)
VH: QVQLVESGGGLVQPGGSLRLSCAASGFTFSNYSMTWVRQAPGKGLEWVSGISYNGSNTYYADSVKGRFTISRDNSKNTLYLQMNSLRAEDTAVYYCARIYYMNLLAGWGQGTLVTVSS
VL: DIELTQPPSVSVAPGQTARISCSGDALGTYYAYWYQQKPGQAPVLVIYGDMNRPSGIPERFSGSNSGNTATLTISGTQAEDEADYYCQSYDAGVKPAVFGGGTKLTVLG
binding: binds

B2: TP-3F1 (Fab, V domains shown)
VH: QVQLVQSGAEVKKPGESLKISCKGSGYSFTDYWIGWVRQMPGKGLEWMGIIQPSDSDTNYSPSFQGQVTISADKSISTAYLQWSSLKASDTAMYYCARFMWWGKYDSGFDVWGQGTLVTVSS
VL: DIELTQPPSVSVAPGQTARISCSGDNIGSYFASWYQQKPGQAPVLVIYDDSNRPSGIPERFSGSNSGNTATLTISGTQAEDEADYYCEGSNVFGGGTKLTVLG
binding: binds

B4: TP-2B8 (Fab, V domains shown)
VH: QVQLVQSGAEVKKPGASVKVSCKASGYTFTGNSMHWVRQAPGQGLEWMGTIFPYDGTTKYAQKFQGRVTMTRDTSISTAYMELSSLRSEDTAVYYCARGVHSYFDYWGQGTLVTVSS
VL: DIELTQPPSVSVAPGQTARISCSGDNLRGYYASWYQQKPGQAPVLVIYEDNNRPSGIPERFSGSNSGNTATLTISGTQAEDEADYYCQSWDSPYVHVFGGGTKLTVLG
binding: binds

B5: TP-3F2 (Fab, V domains shown)
VH: QVQLVESGGGLVQPGGSLRLSCAASGFTFSSYSMHWVRQAPGKGLEWVSGISYSSSFTYYADSVKGRFTISRDNSKNTLYLQMNSLRAEDTAVYYCARALGGGVDYWGQGTLVTVSS
VL: DIELTQPPSVSVAPGQTARISCSGDNLPSKSVYWYQQKPGQAPVLVIYGDNNRPSGIPERFSGSNSGNTATLTISGTQAEDEADYYCQSWTSRPMVVFGGGTKLTVLG
binding: binds

B6: TP-2A10 (Fab, V domains shown)
VH: QVQLVESGGGLVQPGGSLRLSCAASGFTFTSYSMNWVRQAPGKGLEWVSAISYTGSNTHYADSVKGRFTISRDNSKNTLYLQMNSLRAEDTAVYYCARAFLGYKESYFDIWGQGTLVTVSS
VL: DIELTQPPSVSVAPGQTARISCSGDKLGKKYVHWYQQKPGQAPVLVIYGDDKRPSGIPERFSGSNSGNTATLTISGTQAEDEADYYCQAWGSISRFVFGGGTKLTVLG
binding: binds

B7: TP-2B3 (Fab, V domains shown)
VH: QVQLQQSGPGLVKPSQTLSLTCAISGDSVSSNSAAWGWIRQSPGRGLEWLGMIYYRSKWYNSYAVSVKSRITINPDTSKNQFSLQLNSVTPEDTAVYYCARTMSKYGGPGMDVWGQGTLVTVSS
VL: DIVLTQSPATLSLSPGERATLSCRASQNIGSNYLAWYQQKPGQAPRLLIYGASTRATGVPARFNGSGSGTDFTLTISSLEPEDFAVYYCQQLNSIPVTFGQGTKVEIKR
binding: binds

B10: TP-3G3 (Fab, V domains shown)
VH: QVQLVESGGGLVQPGGSLRLSCAASGFTFSSYSMSWVRQAPGKGLEWVSSISSSSSNTYYGDSVKGRFTISRDNSKNTLYLQMNSLRAEDTAVYYCARMHYKGMDIWGQGTLVTVSS
VL: DIQMTQSPSSLSASVGDRVTITCRASQNIHSHLNWYQQKPGKAPKLLIYDASSLQSGVPSRFSGSGSGTDFTLTISSLQPEDFAVYYCQQYYDYPLTFGQGTKVEIKR
binding: binds

B11: TP-3G1 (Fab, V domains shown)
VH: QVQLQQSGPGLVKPSQTLSLTCAISGDSVSSNSGGWGWIRQSPGRGLEWLGLIYYRSKWYNAYAVSVKSRITINPDTSKNQFSLQLNSVTPEDTAVYYCARYLGSNFYVYSDVWGQGTLVTVSS
VL: DIQMTQSPSSLSASVGDRVTITCRASQGISSYLHWYQQKPGKAPKLLIYGASTLQSGVPSRFSGSGSGTDFTLTISSLQPEDFATYYCQQQNGYPFTFGQGTKVEIKR
binding: binds

B12: TP-3E1 (Fab, V domains shown)
VH: QVQLVESGGGLVQPGGSLRLSCAASGFTFSNYAMTWVRQAPGKGLEWVSVISSVGSNTYYADSVKGRFTISRDNSKNTLYLQMNSLRAEDTAVYYCARPTKAGRTWWWGPYMDVWGQGTLVTVSS
VL: DIELTQPPSVSVAPGQTARISCSGDNIGSYYAYWYQQKPGQAPVLVIYDDSNRPSGIPERFSGSNSGNTATLTISGTQAEDEADYYCQSYDSTGLLVFGGGTKLTVLG
binding: binds

B14: TP-2B1 (Fab, V domains shown)
VH: QVQLVESGGGLVQPGGSLRLSCAASGFTFSSYSMSWVRQASGKGLEWVSSIKGSGSNTYYADSVKGRFTISRDNSKNTLYLQMNSLRAEDTAVYYCARNGGLIDVWGQGTLVTVSS
VL: DIELTQPPSVSVAPGQTARISCSGDNLGNKYAHWYQQKPGQAPVLVIYYDNKRPSGIPERFSGSNSGNTATLTISGTQAEDEADYYCQSWTPGSNTMVFGGGTRLTVLG
binding: binds

Next, values leading:

binding: binds
B3: TP-4G8 (Fab, V domains shown)
VH: QVQLVESGGGLVQPGGSLRLSCAASGFTFSTYAMHWVRQAPGKGLEWVSTISGYGSFTYYADSVKGRFTISRDNSKNTLYLQMNSLRAEDTAVYYCARNGRKYGQMDNWGQGTLVTVSS
VL: DIELTQPPSVSVAPGQTARISCSGDKLGSKSVHWYQQKPGQAPVLVIYRDTDRPSGIPERFSGSNSGNTATLTISGTQAEDEADYYCQTYDYILNVFGGGTKLTVLG

binding: binds
B8: TP-4E8 (Fab, V domains shown)
VH: QVQLVESGGGLVQPGGSLRLSCAASGFTFNDYAMSWVRQAPGKGLEWVSLIESVSSSTYYADSVKGRFTISRDNSKNTLYLQMNSLRAEDTAVYYCARTIGVLWDDVWGQGTLVTVSS
VL: DIELTQPPSVSVAPGQTARISCSGDALGSKYVSWYQQKPGQAPVLVIYGDNKRPSGIPERFSGSNSGNTATLTISGTQAEDEADYYCQSYTYSLNQVFGGGTKLTVLG

binding: binds
B9: TP-4H8 (Fab, V domains shown)
VH: QVQLVESGGGLVQPGGSLRLSCAASGFTFSDHAMHWVRQAPGKGLEWVSVIEYSGSKTNYADSVKGRFTISRDNSKNTLYLQMNSLRAEDTAVYYCARGDYYPYLVFAIWGQGTLVTVSS
VL: DIELTQPPSVSVAPGQTARISCSGDSIGKKYVHWYQQKPGQAPVLVIYGDNNRPSGIPERFSGSNSGNTATLTISGTQAEDEADYYCSTADSVITYKNVFGGGTKLTVLG

binding: binds
B13: TP-4A7 (Fab, V domains shown)
VH: QVQLVESGGGLVQPGGSLRLSCAASGFTFRNYAMNWVRQAPGKGLEWVSVISGSSSYTYYADSVKGRFTISRDNSKNTLYLQMNSLRAEDTAVYYCARADLPYMVFDYWGQGTLVTVSS
VL: B12 VL with N26A, I27L, Y30K, Y31F, Y33H, N52E, S89A, T93G, G94L, L96Y

binding: binds
B15: TP-3H2 (Fab, V domains shown)
VH: QVQLVESGGGLVQPGGSLRLSCAASGFTFNSYYMSWVRQAPGKGLEWVSNISSSGSNTNYADSVKGRFTISRDNSKNTLYLQMNSLRAEDTAVYYCARVHYGFDFWGQGTLVTVSS
VL: DIELTQPPSVSVAPGQTARISCSGDKLGKYYAYWYQQKPGQAPVLVIYGDSKRPSGIPERFSGSNSGNTATLTISGTQAEDEADYYCSSAAFGSTVFGGGTKLTVLG

binding: binds
B16: TP-4A9 (Fab, V domains shown)
VH: QVQLVESGGGLVQPGGSLRLSCAASGFTFSSYGMSWVRQAPGKGLEWVSLISGVSSSTYYADSVKGRFTISRDNSKNTLYLQMNSLRAEDTAVYYCARSYLGYFDVWGQGTLVTVSS
VL: B15 VL with K26A, Y33S, S51N, S88Q, A90Y, A91T, F92T, G93R, T95L

Source: patent JP2018038398A
